Measured values taken from PubChem BioAssay AID493014 (National Center for Advancing Translational Sciences (NCATS), 2011).
Some of the results follow. Shown are side measurements of this screen, not its main read-out; they come without a call. The list favours compounds with an active or inconclusive main result. The note in brackets gives the kind of curve behind each potency; many fits are weak.

Test: qHTS Assay to Find Inhibitors of Chronic Active B-Cell Receptor Signaling
Conditions: ABC-DLBCL IkBa-CBG/CBR reporter, luminescence ratio (green luciferase fused to IkBa over red control in TMD8 lymphoma cells), 4 h
In short: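 Concentration-response series (up to 46 uM) were applied to TMD8 dual-reporter cells for 4 h at 37C with doxycycline. Green/red ratio, after filter-overlap correction, defined %Activity; red signal alone was normalised to basal cells and zero luminescence.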

[1] = measured here: CBR red luminescence, cell number
[2] = measured here: IkBa-CBG green luminescence

O=c1c2ccccc2n2cnnc2n1-c1ccccc1
AC50 [1]: 6.31 µM [rising, partial curve, poor fit]

Cn1c(N)c(C(=O)COC(=O)C2(c3cccc(F)c3)CCCC2)c(=O)n(C)c1=O
AC50 [1]: 0.562 µM [falling, full curve, poor fit]

Cc1ccc(NC(=O)CSc2nnc(COc3ccccc3C)o2)cc1
AC50 [1]: 3.55 µM [falling, partial curve, poor fit]

O=S(=O)(NC1CCCCC1)c1ccc(Cl)s1
AC50 [1]: 0.00651 µM [falling, full curve, poor fit]

CC(c1ccccc1)N1C(=O)c2ccccc2C1O (stereo not given)
AC50 [1]: 10.3 µM [rising, partial curve, poor fit]

CCn1c(C)nc2cc(C(=O)N/N=C(\C)c3ccc(N4CCOCC4)cc3)ccc21
AC50 [1]: 35.5 µM [rising, single point]

Brc1ccc(-c2ccc(CNCc3ccccn3)o2)cc1
AC50 [1]: 17.8 µM [rising, partial curve, poor fit]

COCC(=O)O[C@]1(CCN(C)CCCc2nc3ccccc3[nH]2)CCc2cc(F)ccc2[C@@H]1C(C)C
AC50 [1]: 11.2 µM [falling, partial curve]

CC(=O)NC(N(C#N)c1nc(Cl)nc(N(C)C)n1)C(Cl)(Cl)Cl (stereo not given)
AC50 [1]: 12.6 µM [rising, partial curve]

Oc1ccc(CNc2ccccc2O)cc1
AC50 [1]: 1.16 µM [falling, full curve, poor fit]

O=S(=O)(c1ccc(-c2cc(C(F)(F)F)on2)s1)N1CCCC1
AC50 [1]: 3.16 µM [falling, single point]

CC(C)CNc1ncnc2c1cnn2Cc1ccc(Cl)cc1
AC50 [1]: 2.82 µM [rising, partial curve]

CCc1nnc(NC(=O)CSc2nnc(C(C)NC(=O)c3ccccc3F)n2C)s1 (stereo not given)
AC50 [1]: 3.16 µM [rising, full curve]

COc1ccc(CCn2c(=N)c(C(=O)NCC3CCCO3)cc3c(=O)n4ccccc4nc32)cc1OC (stereo not given)
AC50 [1]: 0.794 µM [falling, partial curve, poor fit]

Cc1cc(-c2ccccc2)n2nc(C)c(-c3ccccc3)c2n1
AC50 [1]: 0.708 µM [rising, full curve]

COc1ccc2sc(-c3ccccc3OC)c(-c3ccc(OC)c(F)c3)c2c1
AC50 [1]: 23.1 µM [rising, single point]

O=C(NNc1c2ccccc2nc2ccccc12)c1ccc(O)cc1O
AC50 [1]: 25.1 µM [falling, single point]

CN(CCOc1ccc(-c2ccn(S(=O)(=O)c3cccc4ccccc34)n2)cc1)c1ccccn1
AC50 [1]: 0.0291 µM [rising, full curve, poor fit]

CN(C)c1ccc(/C=N/NC(=O)c2cc(-c3ccc4c(c3)OCO4)n[nH]2)cc1
AC50 [1]: 31.6 µM [rising, single point]

Cc1c(C(=O)O)sc2nc(/C=C/c3ccccc3OC(F)F)[nH]c(=O)c12
AC50 [1]: 1.41 µM [falling, full curve]

CCOC(=O)COc1ccc(/C=C2/SC(=Nc3ccccc3)N(Cc3cccnc3)C2=O)cc1OC
AC50 [1]: 18.4 µM [rising, partial curve]

CCCC(O)(CCC)C(=O)NN(C(=O)CCl)c1cccc(C)c1
AC50 [1]: 20.6 µM [falling, single point]

Cc1ccc(NC(=S)NCCSc2ccc(Cl)cc2)c(C)c1
AC50 [1]: 23.1 µM [falling, single point]

C=CCOc1cccc(NC(=O)c2ccccc2SC)c1
AC50 [1]: 31.6 µM [rising, single point]

CC(C)N1CCC2(CC1)N=C(c1ccc3c(c1)OCO3)CC(c1cc(Cl)ccc1O)N2 (stereo not given)
AC50 [1]: 18.4 µM [falling, single point]

O=C(CSc1nc(=O)n(CCN2CCOCC2)c2c1CCCC2)Nc1cccc([N+](=O)[O-])c1
AC50 [1]: 7.31 µM [rising, partial curve, poor fit]

Cc1ccsc1/C=C1\Oc2cc(OCC(=O)c3ccccc3)ccc2C1=O
AC50 [1]: 2.59 µM [rising, full curve]

Cc1ccc(NS(=O)(=O)c2cc(C(=O)Nc3cccc(N(C)S(C)(=O)=O)c3)ccc2C)c(C)c1
AC50 [1]: 18.4 µM [falling, single point]

COc1ccc(/C(N)=N/OC(=O)CCc2ccccc2)cc1OC
AC50 [1]: 20 µM [rising, single point]

NS(=O)(=O)c1cccc(NC(=O)c2cncc(Br)c2)c1
AC50 [1]: 17.8 µM [falling, single point]

O=C(COC(=O)CNC(=O)C1CCCCC1)Nc1cc(C(F)(F)F)ccc1Cl
AC50 [1]: 29.1 µM [rising, single point]

CCc1cc(=O)oc2cc(OCC(=O)OC)c(Cl)cc12
AC50 [1]: 7.31 µM [rising, single point]

Cc1csc(N/N=C/c2ccc(O)c([N+](=O)[O-])c2)n1
AC50 [1]: 11.6 µM [falling, partial curve, poor fit]

Cc1cc2ccccn2c1C(=O)c1ccccc1Br
AC50 [1]: 0.501 µM [rising, full curve, poor fit]

COn1c(=O)c(-c2ccc(F)cc2)[n+]([O-])c2ccccc21
AC50 [1]: 6.31 µM [rising, single point]

COc1cccc(NC(=O)C2Cc3ccccc3CN2C(=O)c2ccco2)c1 (stereo not given)
AC50 [1]: 0.501 µM [falling, partial curve]

Cc1ccc(C(=O)OCn2ncc(Cl)c(Cl)c2=O)cc1
AC50 [1]: 4.47 µM [falling, full curve, poor fit]
AC50 [2]: 11.2 µM [rising, partial curve, poor fit]

COc1ccc(Cl)cc1NC(=O)c1c(NCc2cccs2)sc2c1CCCC2
AC50 [1]: 4.47 µM [rising, full curve, poor fit]

O=Cc1ccccc1OCCOc1ccc([N+](=O)[O-])cc1
AC50 [1]: 35.5 µM [rising, single point]

O=C(O)c1ccc(NC(=O)c2cn(-c3ccccc3)nc2-c2ccccc2)cc1
AC50 [1]: 25.1 µM [falling, single point]

C/C(=N\NC(=O)c1ccc(Br)cc1)c1ccccc1
AC50 [1]: 11.2 µM [falling, single point]

CCN(Cc1ccc(OC)c(F)c1)C(=O)c1oc2ccccc2c1COC
AC50 [1]: 7.94 µM [rising, partial curve, poor fit]

CC(C)(C)N1C(=O)[C@H]2[C@@H](c3ccc(Br)cc3)N3C(=O)N(c4ccc(Br)cc4)C(=O)[C@@]3(Cc3ccccc3)[C@H]2C1=O
AC50 [1]: 2.51 µM [falling, full curve, poor fit]

CCC1SC(=Nc2cccc(C)c2)NC1=O (stereo not given)
AC50 [1]: 25.1 µM [falling, partial curve]

CN(Cc1ccccc1Cl)C(=O)c1cnccc1C(F)(F)F
AC50 [1]: 5.01 µM [rising, full curve, poor fit]

CCN(CC)S(=O)(=O)c1ccc(/C=C/C(=O)Nc2ccc(F)cc2F)cc1
AC50 [1]: 23.1 µM [falling, single point]

CCOc1cc2c(C#N)c(N3CCNCC3)nc(N)c2c(N)n1
AC50 [1]: 6.51 µM [falling, single point]

Cc1cc(C(=O)COc2ccc(F)cc2Br)c(C)n1C1CC1
AC50 [1]: 29.1 µM [rising, partial curve, poor fit]

COc1ccc(Oc2ccc(/C=C/C(=O)c3ccc(O)cc3)cc2[N+](=O)[O-])cc1
AC50 [1]: 20.6 µM [falling, single point]

Cc1ccc2nc(-c3ccccc3)c(-c3ccccc3)nc2c1
AC50 [1]: 10 µM [rising, partial curve]

COC(=O)Cn1cc(/C=C/[N+](=O)[O-])c2ccccc21
AC50 [1]: 8.91 µM [falling, partial curve]
AC50 [2]: 35.5 µM [falling, single point]

O=c1cc(CN2CCN(C/C=C/c3ccccc3)CC2)c2cc(O)ccc2o1
AC50 [1]: 17.8 µM [falling, single point]

O=S(=O)(c1ccc(F)cc1)N1CCn2c(nc3ccccc32)C1
AC50 [1]: 2.59 µM [falling, full curve]

Cc1ccc(NC(=O)C2CSC3(C)CCC(=O)N23)cc1S(=O)(=O)N1CCOCC1 (stereo not given)
AC50 [1]: 23.1 µM [rising, partial curve, poor fit]

CC(C)(C)c1ccc(C(=O)NCC(=O)OCc2ccc([N+](=O)[O-])cc2)cc1
AC50 [1]: 13 µM [falling, partial curve, poor fit]

COc1cccc(-n2nnc3c(=O)n(Cc4ccccc4F)cnc32)c1
AC50 [1]: 5.62 µM [rising, partial curve, poor fit]

CCOc1ccc(-c2c(C(=O)N/N=C/C3CC=CCC3)nnn2-c2nonc2N)cc1 (stereo not given)
AC50 [1]: 6.31 µM [rising, single point]

O=S(=O)(c1cccc(-c2nc3ccccc3s2)c1)N1CCCC1
AC50 [1]: 29.1 µM [falling, single point]

CCCCC/C=C\C[C@H](O)/C=C/c1cccc(C[C@H](O)CCCCO)n1
AC50 [1]: 15.8 µM [falling, partial curve, poor fit]

Cc1cc(C)c2nc(NNC(=O)c3ccc(S(=O)(=O)N4CCc5ccccc5C4)cc3)sc2c1
AC50 [1]: 5.8 µM [rising, full curve]

Cc1cccc(NC(=O)N2CCCC2C(=O)NCc2ccccc2)c1 (stereo not given)
AC50 [1]: 17.8 µM [rising, single point]

O=c1c2ccccc2cnn1CCOc1ccccc1
AC50 [1]: 14.6 µM [falling, partial curve, poor fit]

O=C(c1ccc(Cl)c(Cl)c1)N1CCC(=O)N(C(COCc2cccc(C(F)(F)F)c2)Cc2ccccc2)CC1 (stereo not given)
AC50 [1]: 16.4 µM [falling, single point]
